The source of these data is publication doi:10.1101/555896.

Results are given in words; binding and its absence hold for the method and conditions named. In cells and extracts the contact can be indirect. A result given as binding can be weak or reduced; the word gives no strength.

This test deals with Flag-HA-tagged AGO1 (human) (UniProt Q9UL18). Briefly: co-IP.

As for “RanBP2 dead E3 mutant (RanBP2-dE3) (from UniProt P49792)”, the binding result is on record as “binds”.
